Measurements reported in article PMC4858697, “Crystal structure of TRAF1 TRAF domain and its implications in the TRAF1-mediated intracellular signaling pathway” (Scientific Reports, 2016).
These are yes or no findings as the source states them, for the method shown.

Legend:
[1] = molecular target: TRAF1 TRAF-C domain (residues 253 to 416), lacking the TRAF-N coiled-coil domain (human) (UniProt Q13077); test: SEC; Superdex 200 10/30 gel filtration in 20 mM sodium citrate pH 5.0, 1 M NaCl; both purified
[2] = molecular target: TRAF1 TRAF-C domain (residues 253 to 416), lacking the TRAF-N coiled-coil domain (human) (UniProt Q13077); test: SEC-MALS; Superdex 200 HR 10/30 in 20 mM sodium citrate pH 5.0, 1 M NaCl, coupled to MALS and refractive index detectors; both purified

B1: TRAF1 TRAF-C domain (residues 253 to 416), lacking the TRAF-N coiled-coil domain (domain or fragment, UniProt Q13077 253-416)
chain: LEQSLRLMEEASFDGTFLWKITNVTRRCHESACGRTVSLFSPAFYTAKYGYKLCLRLYLNGDGTGKRTHLSLFIVIMRGEYDALLPWPFRNKVTFMLLDQNNREHAIDAFRPDLSSASFQRPQSETNVASGCPLFFPLSKLQSPKHAYVKDDTMFLKCIVETST
binding [1]: no binding
binding [2]: no binding
